No constants are given. Whether binding was seen depends on the method and setting. In cells and extracts the contact can be indirect. Here binding means that the protein was enriched with, or labelled near, the bait; the list need not be complete. Where a sequence is shown, tags or fusion partners need not be part of it.
Key:
Assay in all cases: affinity purification with mass spectrometry; FLAG IP of overexpressed N- and C-terminally FLAG-tagged CRTC1-3 from HEK 293T cells after 10 uM forskolin for 1 hr; endogenous phosphatase subunits found by MS (spectral counts)
[1] = biological target: T1, FLAG-tagged CRTC1 (cAMP-regulated transcriptional coactivator 1) (mouse) (UniProt Q68ED7)
T1 sequence: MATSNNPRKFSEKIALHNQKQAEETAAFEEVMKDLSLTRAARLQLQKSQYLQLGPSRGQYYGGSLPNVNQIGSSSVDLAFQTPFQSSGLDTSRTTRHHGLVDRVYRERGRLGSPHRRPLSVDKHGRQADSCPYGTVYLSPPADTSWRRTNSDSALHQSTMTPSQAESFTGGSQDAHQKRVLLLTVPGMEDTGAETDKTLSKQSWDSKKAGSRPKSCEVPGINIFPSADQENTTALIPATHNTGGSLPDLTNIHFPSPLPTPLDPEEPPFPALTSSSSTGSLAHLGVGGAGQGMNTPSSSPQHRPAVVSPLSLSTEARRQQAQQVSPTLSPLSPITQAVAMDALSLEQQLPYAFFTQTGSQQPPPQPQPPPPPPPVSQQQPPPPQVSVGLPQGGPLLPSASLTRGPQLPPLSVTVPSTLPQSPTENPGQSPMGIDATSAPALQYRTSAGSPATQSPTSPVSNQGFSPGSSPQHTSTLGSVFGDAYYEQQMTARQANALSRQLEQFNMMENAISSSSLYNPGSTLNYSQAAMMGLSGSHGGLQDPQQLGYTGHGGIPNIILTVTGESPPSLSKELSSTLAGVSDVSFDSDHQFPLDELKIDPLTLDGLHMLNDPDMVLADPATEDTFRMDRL

[2] = biological target: T2, FLAG-tagged CRTC3 wild type (cAMP-regulated transcriptional coactivator 3) (mouse) (UniProt Q91X84)
T2 sequence: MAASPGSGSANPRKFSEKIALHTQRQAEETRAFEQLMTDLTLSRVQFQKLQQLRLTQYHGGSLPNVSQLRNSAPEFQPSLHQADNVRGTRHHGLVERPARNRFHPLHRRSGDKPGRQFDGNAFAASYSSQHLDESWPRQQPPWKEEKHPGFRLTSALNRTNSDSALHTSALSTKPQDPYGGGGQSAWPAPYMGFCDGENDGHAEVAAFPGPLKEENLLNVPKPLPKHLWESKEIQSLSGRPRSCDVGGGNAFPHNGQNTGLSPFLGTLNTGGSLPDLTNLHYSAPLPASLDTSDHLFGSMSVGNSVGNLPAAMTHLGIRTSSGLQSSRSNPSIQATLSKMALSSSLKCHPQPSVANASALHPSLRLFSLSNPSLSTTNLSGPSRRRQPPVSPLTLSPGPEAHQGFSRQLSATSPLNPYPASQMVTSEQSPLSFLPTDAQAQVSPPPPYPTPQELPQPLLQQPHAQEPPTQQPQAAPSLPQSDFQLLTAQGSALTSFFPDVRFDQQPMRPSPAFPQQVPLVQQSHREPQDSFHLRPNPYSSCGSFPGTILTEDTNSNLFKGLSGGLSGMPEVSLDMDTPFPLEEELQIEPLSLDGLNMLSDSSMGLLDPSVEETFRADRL

[3] = biological target: T3, FLAG-tagged CRTC2 (cAMP-regulated transcriptional coactivator 2) (mouse) (UniProt Q3U182)
T3 sequence: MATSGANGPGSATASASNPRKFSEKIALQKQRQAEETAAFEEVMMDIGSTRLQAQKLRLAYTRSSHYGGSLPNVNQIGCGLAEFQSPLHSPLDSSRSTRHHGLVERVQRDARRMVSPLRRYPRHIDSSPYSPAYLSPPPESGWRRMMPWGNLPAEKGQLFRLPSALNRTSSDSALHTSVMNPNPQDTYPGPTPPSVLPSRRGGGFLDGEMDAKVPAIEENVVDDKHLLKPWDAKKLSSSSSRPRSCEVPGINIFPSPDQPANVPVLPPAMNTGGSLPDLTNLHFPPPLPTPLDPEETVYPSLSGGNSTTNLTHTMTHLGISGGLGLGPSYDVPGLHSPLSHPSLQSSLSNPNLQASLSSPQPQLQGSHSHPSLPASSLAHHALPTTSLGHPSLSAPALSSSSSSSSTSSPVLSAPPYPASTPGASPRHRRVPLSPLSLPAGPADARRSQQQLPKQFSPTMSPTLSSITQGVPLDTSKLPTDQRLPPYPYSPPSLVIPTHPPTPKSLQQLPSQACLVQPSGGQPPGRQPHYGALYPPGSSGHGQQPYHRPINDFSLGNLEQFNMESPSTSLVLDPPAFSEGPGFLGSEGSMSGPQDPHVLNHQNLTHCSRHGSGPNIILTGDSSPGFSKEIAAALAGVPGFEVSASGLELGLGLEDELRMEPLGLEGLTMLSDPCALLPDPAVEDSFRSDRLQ

- binding [1]: binds weakly
- binding [2]: binds weakly
- binding [3]: binds weakly
Substance: protein phosphatase 1 (human (endogenous in HEK 293T)) (enzyme)

Reference: article PMC6317279
